Measurements reported in PubChem BioAssay AID1224830 (NIAID, 2016).

- Aim: 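Host factors that control LPS-induced TNF expression in human macrophages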 (primary screen)
- Cell system: human THP-1 monocytic leukaemia cells, TNF dual-luciferase reporter clone, PMA-differentiated to macrophage-like cells
- Reagents: siRNA pool against human genes, 50 nM
- Time to read-out: LPS for 4 h, given about 3 days after siRNA transfection
- Conditions: bacterial LPS (TLR4 ligand), 10 ng/ml
- Detection: 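Ratio of firefly to renilla light, scaled to the plate median and expressed as a robust z-score per replicate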
- Reading the numbers: TNF reporter robust z-score: higher = stronger TNF reporter response to LPS
- Call rule: 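Each well counts as active if its z-score is over 2.8 or under -1.5; controls are left without a call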
Here is an unselected part of about 18,000 reagents tested. About 2,900 of them (16%) were called active. 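Calls are made per well; low scores hint the gene aids the LPS response, high scores that it dampens it.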 Repeated entries: four replicate wells of each siRNA pool.

| gene knocked down | TNF reporter robust z-score | call |
| --- | --- | --- |
| OR10X1 (olfactory receptor family 10 subfamily X member 1) | 0.98 | inactive |
| OR10X1 (olfactory receptor family 10 subfamily X member 1) | 0.97 | inactive |
| OR10X1 (olfactory receptor family 10 subfamily X member 1) | 0.31 | inactive |
| OR10X1 (olfactory receptor family 10 subfamily X member 1) | 1.11 | inactive |
| ZNF382 (zinc finger protein 382) | 0.08 | inactive |
| ZNF382 (zinc finger protein 382) | -0.41 | inactive |
| ZNF382 (zinc finger protein 382) | -0.74 | inactive |
| ZNF382 (zinc finger protein 382) | -0.89 | inactive |
| ARSF (arylsulfatase F) | -0.79 | inactive |
| ARSF (arylsulfatase F) | 0.07 | inactive |
| ARSF (arylsulfatase F) | -0.39 | inactive |
| ARSF (arylsulfatase F) | -0.02 | inactive |
| MCL1 (MCL1 apoptosis regulator, BCL2 family member) | -1.28 | inactive |
| MCL1 (MCL1 apoptosis regulator, BCL2 family member) | 0.9 | inactive |
| MCL1 (MCL1 apoptosis regulator, BCL2 family member) | -0.84 | inactive |
| MCL1 (MCL1 apoptosis regulator, BCL2 family member) | -0.03 | inactive |
| TMPRSS9 (transmembrane serine protease 9) | -1.03 | inactive |
| TMPRSS9 (transmembrane serine protease 9) | -0.95 | inactive |
| TMPRSS9 (transmembrane serine protease 9) | -0.12 | inactive |
| TMPRSS9 (transmembrane serine protease 9) | -0.52 | inactive |
| COL1A2 (collagen type I alpha 2 chain) | -2.04 | active |
| COL1A2 (collagen type I alpha 2 chain) | -2.01 | active |
| COL1A2 (collagen type I alpha 2 chain) | -2 | active |
| COL1A2 (collagen type I alpha 2 chain) | -1.75 | active |
| MGAT4B | -1.2 | inactive |
| MGAT4B | -0.58 | inactive |
| MGAT4B | -1.35 | inactive |
| MGAT4B | -1.26 | inactive |
| TEX44 (testis expressed 44) | 0.52 | inactive |
| TEX44 (testis expressed 44) | 0.32 | inactive |
| TEX44 (testis expressed 44) | 0.39 | inactive |
| TEX44 (testis expressed 44) | 1.25 | inactive |
| CRYBA2 (crystallin beta A2) | 1.1 | inactive |
| CRYBA2 (crystallin beta A2) | 1.97 | inactive |
| CRYBA2 (crystallin beta A2) | 0.61 | inactive |
| CRYBA2 (crystallin beta A2) | 2.1 | inactive |
| PPTC7 (protein phosphatase targeting COQ7) | -0.49 | inactive |
| PPTC7 (protein phosphatase targeting COQ7) | -0.4 | inactive |
| PPTC7 (protein phosphatase targeting COQ7) | -0.39 | inactive |
| PPTC7 (protein phosphatase targeting COQ7) | -1.02 | inactive |
| ODF2 (outer dense fiber of sperm tails 2) | -1.47 | inactive |
| ODF2 (outer dense fiber of sperm tails 2) | -0.94 | inactive |
| ODF2 (outer dense fiber of sperm tails 2) | -1.17 | inactive |
| ODF2 (outer dense fiber of sperm tails 2) | -0.51 | inactive |
| FAM221A (family with sequence similarity 221 member A) | -0.86 | inactive |
| FAM221A (family with sequence similarity 221 member A) | -0.7 | inactive |
| FAM221A (family with sequence similarity 221 member A) | -0.21 | inactive |
| FAM221A (family with sequence similarity 221 member A) | -0.74 | inactive |
| TXNL1 (thioredoxin like 1) | 0.51 | inactive |
| TXNL1 (thioredoxin like 1) | 0.96 | inactive |
| TXNL1 (thioredoxin like 1) | -0.16 | inactive |
| TXNL1 (thioredoxin like 1) | 0.85 | inactive |
| ZNF582 (zinc finger protein 582) | -0.33 | inactive |
| ZNF582 (zinc finger protein 582) | 0.13 | inactive |
| ZNF582 (zinc finger protein 582) | 0.44 | inactive |
| ZNF582 (zinc finger protein 582) | -0.31 | inactive |
| MAGED1 (MAGE family member D1) | -0.85 | inactive |
| MAGED1 (MAGE family member D1) | -1.35 | inactive |
| MAGED1 (MAGE family member D1) | -0.05 | inactive |
| MAGED1 (MAGE family member D1) | 0.37 | inactive |
| FAM81A (family with sequence similarity 81 member A) | -0.13 | inactive |
| FAM81A (family with sequence similarity 81 member A) | 1.19 | inactive |
| FAM81A (family with sequence similarity 81 member A) | 0.08 | inactive |
| FAM81A (family with sequence similarity 81 member A) | -0.25 | inactive |
| RALY (RALY heterogeneous nuclear ribonucleoprotein) | 2.13 | inactive |
| RALY (RALY heterogeneous nuclear ribonucleoprotein) | 2.2 | inactive |
| RALY (RALY heterogeneous nuclear ribonucleoprotein) | -0.76 | inactive |
| RALY (RALY heterogeneous nuclear ribonucleoprotein) | -0.24 | inactive |
| ZFYVE21 (zinc finger FYVE-type containing 21) | -0.19 | inactive |
| ZFYVE21 (zinc finger FYVE-type containing 21) | 0.23 | inactive |
| ZFYVE21 (zinc finger FYVE-type containing 21) | -0.55 | inactive |
| ZFYVE21 (zinc finger FYVE-type containing 21) | 0.02 | inactive |
| WDFY1 (WD repeat and FYVE domain containing 1) | -0.06 | inactive |
| WDFY1 (WD repeat and FYVE domain containing 1) | -0.24 | inactive |
| WDFY1 (WD repeat and FYVE domain containing 1) | -0.21 | inactive |
| WDFY1 (WD repeat and FYVE domain containing 1) | -0.54 | inactive |
| ATP2A1 | -1.62 | active |
| ATP2A1 | -0.94 | inactive |
| ATP2A1 | -1.31 | inactive |
| CFAP45 (cilia and flagella associated protein 45) | 0.81 | inactive |
| CFAP45 (cilia and flagella associated protein 45) | -0.59 | inactive |
| CFAP45 (cilia and flagella associated protein 45) | -0.93 | inactive |
| CFAP45 (cilia and flagella associated protein 45) | -0.77 | inactive |
| CFAP45 (cilia and flagella associated protein 45) | 1.2 | inactive |
| CFAP45 (cilia and flagella associated protein 45) | 1.81 | inactive |
| CFAP45 (cilia and flagella associated protein 45) | 1.12 | inactive |
| CFAP45 (cilia and flagella associated protein 45) | 1.49 | inactive |
| TNFAIP8 (TNF alpha induced protein 8) | 0.56 | inactive |
| TNFAIP8 (TNF alpha induced protein 8) | 1.57 | inactive |
| TNFAIP8 (TNF alpha induced protein 8) | 1.09 | inactive |
| TNFAIP8 (TNF alpha induced protein 8) | 1.68 | inactive |
| ATP6V0A1 (ATPase H+ transporting V0 subunit a1) | -0.54 | inactive |
| ATP6V0A1 (ATPase H+ transporting V0 subunit a1) | -0.08 | inactive |
| ATP6V0A1 (ATPase H+ transporting V0 subunit a1) | -0.89 | inactive |
| ATP6V0A1 (ATPase H+ transporting V0 subunit a1) | -0.02 | inactive |
| TBX5 (T-box transcription factor 5) | -0.84 | inactive |
| TBX5 (T-box transcription factor 5) | 0.36 | inactive |
| TBX5 (T-box transcription factor 5) | -0.07 | inactive |
| TBX5 (T-box transcription factor 5) | 0.4 | inactive |
| RPL36A (ribosomal protein L36a) | 0.8 | inactive |
| RPL36A (ribosomal protein L36a) | 2.13 | inactive |
| RPL36A (ribosomal protein L36a) | 0.92 | inactive |
| RPL36A (ribosomal protein L36a) | 2.16 | inactive |
| PLA2G10 (phospholipase A2 group X) | -0.05 | inactive |
| PLA2G10 (phospholipase A2 group X) | -0.61 | inactive |
| PLA2G10 (phospholipase A2 group X) | 0.21 | inactive |
| PLA2G10 (phospholipase A2 group X) | 0.48 | inactive |
| CPZ (carboxypeptidase Z) | -0.41 | inactive |
| CPZ (carboxypeptidase Z) | 1.72 | inactive |
| CPZ (carboxypeptidase Z) | -0.26 | inactive |
| CPZ (carboxypeptidase Z) | -1.05 | inactive |

Sorted by “TNF reporter robust z-score” (low to high): 6 of the entries above
| gene knocked down | TNF reporter robust z-score | call |
| --- | --- | --- |
| ATP2A1 | -1.31 | inactive |
| ATP2A1 | -0.94 | inactive |
| CFAP45 (cilia and flagella associated protein 45) | -0.93 | inactive |
| CFAP45 (cilia and flagella associated protein 45) | -0.77 | inactive |
| CFAP45 (cilia and flagella associated protein 45) | -0.59 | inactive |
| CFAP45 (cilia and flagella associated protein 45) | 0.81 | inactive |
